This is one part of the list.
Experiments:
Experiment in all cases: log2 fold change, soluble protein after heating vs DMSO (PISA); higher = thermal stabilisation; K562 lysate, 10 uM; active = over 0.2 and 3.5 SD of the protein, either way, in both replicates (recomputed)
erlotinib = compound: C#Cc1cccc(Nc2ncnc3cc(OCCOC)c(OCCOC)cc23)c1 [erlotinib]
Method in brief: (§1)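 The values are log-two fold changes in thermal stability compared with solvent controls and come from duplicates. They were obtained by TMTpro 16plex LC-MS/MS, with channel sums equalised, on the supernatant after 21,000xg for 90 min. That supernatant came from crude K562 extract at 1 mg/mL protein treated with 10 μM compound for 30 min, heated for 3 min across 48°C-58°C, pooled and brought to 0.5% NP-40 at 4°C.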

Chains of the proteins cited; added tags and fusions are not shown. Lines headed by an entry give the natural chain unless they say otherwise; changes in a name come on top.
UniProt Q96KR6: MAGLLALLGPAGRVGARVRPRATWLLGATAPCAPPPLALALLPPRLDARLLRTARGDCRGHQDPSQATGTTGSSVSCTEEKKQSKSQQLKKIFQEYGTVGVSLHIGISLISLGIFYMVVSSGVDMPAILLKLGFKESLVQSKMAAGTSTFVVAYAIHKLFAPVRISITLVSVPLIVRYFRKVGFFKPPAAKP
UniProt O95571: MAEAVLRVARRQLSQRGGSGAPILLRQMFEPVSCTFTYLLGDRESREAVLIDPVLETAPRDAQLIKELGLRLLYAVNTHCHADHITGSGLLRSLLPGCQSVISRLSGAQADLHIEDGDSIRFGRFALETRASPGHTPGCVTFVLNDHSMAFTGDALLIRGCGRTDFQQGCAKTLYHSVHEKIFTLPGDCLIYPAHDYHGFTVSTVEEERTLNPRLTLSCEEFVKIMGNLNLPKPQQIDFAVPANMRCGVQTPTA
UniProt Q9UPT5: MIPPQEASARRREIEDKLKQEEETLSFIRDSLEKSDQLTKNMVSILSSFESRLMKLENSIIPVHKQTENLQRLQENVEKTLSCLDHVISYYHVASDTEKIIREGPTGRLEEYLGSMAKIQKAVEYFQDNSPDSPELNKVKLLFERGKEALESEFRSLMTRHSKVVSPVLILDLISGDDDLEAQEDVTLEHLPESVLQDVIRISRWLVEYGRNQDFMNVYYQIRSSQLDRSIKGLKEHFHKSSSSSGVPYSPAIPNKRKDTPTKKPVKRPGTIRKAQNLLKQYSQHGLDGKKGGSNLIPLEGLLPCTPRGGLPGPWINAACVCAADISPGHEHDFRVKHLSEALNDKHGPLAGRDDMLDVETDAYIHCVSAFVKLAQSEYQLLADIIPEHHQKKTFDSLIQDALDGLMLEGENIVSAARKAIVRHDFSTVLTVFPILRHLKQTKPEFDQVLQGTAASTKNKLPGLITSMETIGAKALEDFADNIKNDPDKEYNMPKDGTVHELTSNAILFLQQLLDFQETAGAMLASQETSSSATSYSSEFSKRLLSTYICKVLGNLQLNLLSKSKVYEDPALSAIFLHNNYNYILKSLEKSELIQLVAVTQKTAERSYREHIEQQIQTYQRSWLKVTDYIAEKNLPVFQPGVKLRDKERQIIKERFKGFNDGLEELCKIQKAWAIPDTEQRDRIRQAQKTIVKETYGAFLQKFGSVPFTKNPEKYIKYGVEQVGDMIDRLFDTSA
UniProt Q9BSJ8: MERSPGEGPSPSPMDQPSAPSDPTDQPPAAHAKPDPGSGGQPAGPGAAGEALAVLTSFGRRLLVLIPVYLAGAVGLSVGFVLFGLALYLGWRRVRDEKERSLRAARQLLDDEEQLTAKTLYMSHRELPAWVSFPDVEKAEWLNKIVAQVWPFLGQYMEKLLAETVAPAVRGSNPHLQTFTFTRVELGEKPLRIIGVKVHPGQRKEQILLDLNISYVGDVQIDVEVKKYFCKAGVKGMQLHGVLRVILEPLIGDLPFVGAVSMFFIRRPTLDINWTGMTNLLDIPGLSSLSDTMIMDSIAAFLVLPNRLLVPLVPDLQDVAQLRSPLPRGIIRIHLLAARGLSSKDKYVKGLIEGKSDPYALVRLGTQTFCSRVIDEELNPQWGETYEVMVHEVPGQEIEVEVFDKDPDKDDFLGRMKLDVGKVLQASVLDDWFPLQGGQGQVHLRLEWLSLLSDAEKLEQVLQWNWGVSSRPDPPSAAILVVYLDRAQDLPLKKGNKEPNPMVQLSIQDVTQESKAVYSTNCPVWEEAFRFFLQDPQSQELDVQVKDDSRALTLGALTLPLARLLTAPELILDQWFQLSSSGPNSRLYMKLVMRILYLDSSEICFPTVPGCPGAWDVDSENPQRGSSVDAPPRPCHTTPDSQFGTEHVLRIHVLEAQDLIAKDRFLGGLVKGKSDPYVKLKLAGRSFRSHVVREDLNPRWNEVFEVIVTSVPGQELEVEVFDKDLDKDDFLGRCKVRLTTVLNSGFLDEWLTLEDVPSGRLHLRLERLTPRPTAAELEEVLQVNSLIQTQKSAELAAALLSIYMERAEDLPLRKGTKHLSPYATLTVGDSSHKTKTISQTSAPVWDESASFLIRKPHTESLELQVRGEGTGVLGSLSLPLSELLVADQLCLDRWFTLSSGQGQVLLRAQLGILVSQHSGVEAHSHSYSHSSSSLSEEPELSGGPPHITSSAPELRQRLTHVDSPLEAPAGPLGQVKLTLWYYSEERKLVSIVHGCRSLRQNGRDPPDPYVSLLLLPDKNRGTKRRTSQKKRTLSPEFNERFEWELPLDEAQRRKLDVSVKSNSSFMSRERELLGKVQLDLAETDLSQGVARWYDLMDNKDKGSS
UniProt Q9UBQ6: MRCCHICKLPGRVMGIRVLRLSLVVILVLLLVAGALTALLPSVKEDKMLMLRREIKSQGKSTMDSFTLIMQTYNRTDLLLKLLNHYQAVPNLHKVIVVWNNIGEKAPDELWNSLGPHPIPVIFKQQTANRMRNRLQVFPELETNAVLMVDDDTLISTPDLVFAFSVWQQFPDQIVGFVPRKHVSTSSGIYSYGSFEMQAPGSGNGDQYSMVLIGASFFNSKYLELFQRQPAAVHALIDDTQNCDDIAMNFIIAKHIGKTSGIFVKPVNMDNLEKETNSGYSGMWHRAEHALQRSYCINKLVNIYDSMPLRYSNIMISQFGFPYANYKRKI
UniProt Q9GZU8: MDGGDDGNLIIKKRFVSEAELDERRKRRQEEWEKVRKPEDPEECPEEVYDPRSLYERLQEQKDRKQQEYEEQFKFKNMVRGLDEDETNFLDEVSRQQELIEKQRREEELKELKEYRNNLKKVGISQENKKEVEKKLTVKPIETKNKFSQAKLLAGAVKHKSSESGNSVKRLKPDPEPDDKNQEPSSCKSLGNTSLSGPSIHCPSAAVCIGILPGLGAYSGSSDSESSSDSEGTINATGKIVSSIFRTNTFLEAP
UniProt Q9C073: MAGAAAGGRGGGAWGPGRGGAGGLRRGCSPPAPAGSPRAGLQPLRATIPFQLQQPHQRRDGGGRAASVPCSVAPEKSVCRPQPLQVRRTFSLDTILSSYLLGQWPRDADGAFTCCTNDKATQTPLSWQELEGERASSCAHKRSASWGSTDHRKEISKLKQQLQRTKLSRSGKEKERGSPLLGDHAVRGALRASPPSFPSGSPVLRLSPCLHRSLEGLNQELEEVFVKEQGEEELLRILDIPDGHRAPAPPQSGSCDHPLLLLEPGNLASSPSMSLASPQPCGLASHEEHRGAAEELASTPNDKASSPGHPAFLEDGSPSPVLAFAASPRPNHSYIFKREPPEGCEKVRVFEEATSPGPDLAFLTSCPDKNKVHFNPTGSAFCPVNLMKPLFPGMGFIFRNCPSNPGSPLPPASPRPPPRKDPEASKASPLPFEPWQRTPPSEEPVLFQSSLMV
UniProt Q9NQT5, whole entry, looked up: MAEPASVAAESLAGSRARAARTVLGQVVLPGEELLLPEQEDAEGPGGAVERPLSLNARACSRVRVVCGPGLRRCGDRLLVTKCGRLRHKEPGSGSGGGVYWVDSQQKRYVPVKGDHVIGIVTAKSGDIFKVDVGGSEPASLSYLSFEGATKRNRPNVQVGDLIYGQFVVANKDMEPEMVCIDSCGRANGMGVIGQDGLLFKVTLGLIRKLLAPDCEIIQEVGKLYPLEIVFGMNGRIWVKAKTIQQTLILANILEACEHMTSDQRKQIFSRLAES
UniProt P10768: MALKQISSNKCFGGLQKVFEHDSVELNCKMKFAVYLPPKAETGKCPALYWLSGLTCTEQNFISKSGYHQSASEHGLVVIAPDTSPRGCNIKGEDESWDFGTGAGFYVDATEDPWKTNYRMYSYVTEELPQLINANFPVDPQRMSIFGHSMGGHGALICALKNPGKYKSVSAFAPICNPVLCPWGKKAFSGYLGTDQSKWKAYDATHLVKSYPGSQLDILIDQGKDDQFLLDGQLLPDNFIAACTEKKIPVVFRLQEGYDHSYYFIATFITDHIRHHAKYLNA
UniProt P12259: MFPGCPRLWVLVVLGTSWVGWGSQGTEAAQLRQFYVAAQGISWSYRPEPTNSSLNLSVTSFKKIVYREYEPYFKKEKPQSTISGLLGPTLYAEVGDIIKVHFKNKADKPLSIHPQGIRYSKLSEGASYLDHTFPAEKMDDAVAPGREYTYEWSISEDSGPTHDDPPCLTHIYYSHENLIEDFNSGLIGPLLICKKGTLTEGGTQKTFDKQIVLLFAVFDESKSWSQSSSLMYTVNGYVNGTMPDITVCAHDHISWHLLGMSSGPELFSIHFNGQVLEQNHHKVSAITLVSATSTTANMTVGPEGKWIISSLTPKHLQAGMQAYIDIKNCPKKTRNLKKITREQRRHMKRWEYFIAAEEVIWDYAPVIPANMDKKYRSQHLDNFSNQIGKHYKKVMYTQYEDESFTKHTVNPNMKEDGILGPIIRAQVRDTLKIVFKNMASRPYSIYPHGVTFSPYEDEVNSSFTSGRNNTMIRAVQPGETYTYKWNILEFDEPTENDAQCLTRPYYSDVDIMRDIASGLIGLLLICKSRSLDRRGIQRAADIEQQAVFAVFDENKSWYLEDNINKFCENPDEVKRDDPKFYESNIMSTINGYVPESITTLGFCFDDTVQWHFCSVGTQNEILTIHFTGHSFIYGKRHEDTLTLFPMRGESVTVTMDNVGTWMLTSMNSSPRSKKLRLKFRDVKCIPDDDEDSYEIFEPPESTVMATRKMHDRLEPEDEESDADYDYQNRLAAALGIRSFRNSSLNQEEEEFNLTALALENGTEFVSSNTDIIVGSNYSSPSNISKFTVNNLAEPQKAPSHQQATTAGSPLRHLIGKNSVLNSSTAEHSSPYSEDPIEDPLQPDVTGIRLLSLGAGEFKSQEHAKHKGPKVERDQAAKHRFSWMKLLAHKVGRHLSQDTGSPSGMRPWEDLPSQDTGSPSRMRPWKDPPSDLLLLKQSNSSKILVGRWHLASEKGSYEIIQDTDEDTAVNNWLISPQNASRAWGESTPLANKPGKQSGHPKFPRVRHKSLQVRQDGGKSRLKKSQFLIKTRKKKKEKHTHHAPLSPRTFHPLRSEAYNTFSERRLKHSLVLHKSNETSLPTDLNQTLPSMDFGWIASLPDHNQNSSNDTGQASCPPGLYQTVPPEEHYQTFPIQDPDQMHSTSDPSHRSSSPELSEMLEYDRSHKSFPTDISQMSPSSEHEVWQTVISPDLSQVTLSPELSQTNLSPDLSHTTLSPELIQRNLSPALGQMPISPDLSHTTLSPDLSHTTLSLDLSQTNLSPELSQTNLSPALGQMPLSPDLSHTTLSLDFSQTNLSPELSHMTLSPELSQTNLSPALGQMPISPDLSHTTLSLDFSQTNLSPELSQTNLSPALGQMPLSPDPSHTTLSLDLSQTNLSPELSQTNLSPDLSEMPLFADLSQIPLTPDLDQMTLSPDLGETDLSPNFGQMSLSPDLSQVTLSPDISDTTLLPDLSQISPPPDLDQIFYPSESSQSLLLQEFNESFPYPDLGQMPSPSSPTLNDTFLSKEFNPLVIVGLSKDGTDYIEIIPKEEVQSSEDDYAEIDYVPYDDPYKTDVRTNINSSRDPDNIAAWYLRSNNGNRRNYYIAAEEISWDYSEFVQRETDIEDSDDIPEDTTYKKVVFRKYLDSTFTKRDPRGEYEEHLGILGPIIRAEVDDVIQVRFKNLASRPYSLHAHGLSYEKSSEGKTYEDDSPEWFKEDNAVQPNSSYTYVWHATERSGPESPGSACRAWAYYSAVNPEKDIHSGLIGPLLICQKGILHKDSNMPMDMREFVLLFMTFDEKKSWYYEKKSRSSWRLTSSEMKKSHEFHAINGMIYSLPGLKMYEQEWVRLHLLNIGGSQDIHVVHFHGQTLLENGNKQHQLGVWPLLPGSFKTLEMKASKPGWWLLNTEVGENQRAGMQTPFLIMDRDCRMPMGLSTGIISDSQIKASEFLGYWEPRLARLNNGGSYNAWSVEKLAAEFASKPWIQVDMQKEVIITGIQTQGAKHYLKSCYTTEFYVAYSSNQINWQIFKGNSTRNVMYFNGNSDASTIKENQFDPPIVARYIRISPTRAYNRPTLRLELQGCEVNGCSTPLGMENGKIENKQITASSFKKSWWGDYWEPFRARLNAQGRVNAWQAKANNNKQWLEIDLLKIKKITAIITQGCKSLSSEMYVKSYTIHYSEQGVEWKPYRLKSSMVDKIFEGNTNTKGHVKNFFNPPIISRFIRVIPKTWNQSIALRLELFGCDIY
UniProt Q9HBU6: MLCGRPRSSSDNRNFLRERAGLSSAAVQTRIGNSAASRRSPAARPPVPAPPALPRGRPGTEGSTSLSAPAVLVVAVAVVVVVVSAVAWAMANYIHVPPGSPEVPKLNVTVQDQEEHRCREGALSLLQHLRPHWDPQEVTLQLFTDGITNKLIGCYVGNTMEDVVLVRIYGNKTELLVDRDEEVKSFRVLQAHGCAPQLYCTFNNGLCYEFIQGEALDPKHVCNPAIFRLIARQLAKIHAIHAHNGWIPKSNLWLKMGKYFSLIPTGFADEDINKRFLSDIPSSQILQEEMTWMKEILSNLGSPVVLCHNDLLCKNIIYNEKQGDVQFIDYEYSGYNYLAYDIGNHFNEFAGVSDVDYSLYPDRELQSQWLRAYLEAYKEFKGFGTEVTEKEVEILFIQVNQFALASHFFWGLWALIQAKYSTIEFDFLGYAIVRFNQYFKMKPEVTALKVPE

[1] = compound: C/C(=N\NC(=O)C1=CC(=CC=C1)S(=O)(=O)N2CCOCC2)/C3=C(C=CC(=C3)Cl)O
Method in brief: as §1

[2] = compound: C1=CC(=CC=C1C2=NC3=C(N2)C=C(C=C3)C(=O)N)OC4=CC=C(C=C4)Cl
Method in brief: as §1

[3] = compound: C1=CC2=C(C=CC(=C2)/C=C\3/C(=O)NC(=NCC4=CC=CS4)S3)N=C1
Method in brief: as §1

[4] = compound: C1=CC2=NC=CN=C2C=C1/C=C/3\C(=O)NC(=O)S3
Method in brief: as §1

[5] = compound: C1=CC=C(C=C1)C2=NC(=C(N2)C3=CC=NC=C3)C4=CC(=C(C=C4)Cl)O
Method in brief: as §1

[6] = compound: C1=CC=C2C(=C1)C3=NNC4=CC=CC(=C43)C2=O
Method in brief: as §1

[7] = compound: C1CCN(C1)C(=O)NC2=CC=CC(=C2)NC3=NC=C(C(=N3)NCCC4=CN=CN4)Br
Method in brief: as §1

[8] = compound: C1CN(CCC1(CC2=CC=C(C=C2)Cl)N)C3=NC=NC4=C3C=CN4
Method in brief: as §1

IRAK-1-4 Inhibitor I = compound: C1COCCN1CCN2C3=CC=CC=C3N=C2NC(=O)C4=CC(=CC=C4)[N+](=O)[O-] [IRAK-1-4 Inhibitor I]
Method in brief: as §1

ibrutinib = compound: C=CC(=O)N1CCC[C@@H](n2nc(-c3ccc(Oc4ccccc4)cc3)c3c(N)ncnc32)C1 [ibrutinib]
Method in brief: as §1

[9] = compound: CC(=O)c1cnc2ccc(-c3cc(Cl)c(O)c(Cl)c3)nc2c1N[C@H]1CC[C@H](CN(C)C)CC1
Method in brief: as §1

ralimetinib = compound: CC(C)(C)Cn1c(N)nc2ccc(-c3[nH]c(C(C)(C)C)nc3-c3ccc(F)cc3)nc21 [ralimetinib]
Method in brief: as §1

[10] = compound: CC(C)(O)CC(=O)NCCn1ccc2ncnc(Nc3ccc(Oc4cccc(C(F)(F)F)c4)c(Cl)c3)c21
Method in brief: as §1

[11] = compound: CC(C)C1=C2N=C(C=C(N2N=C1)NCC3=CC=CC=C3)NCCCCCCN
Method in brief: as §1

[12] = compound: CC1=C(C(CC(=O)N1)C2=CC=C(C=C2)C(F)(F)F)C(=O)NC3=C(C=C4C(=C3)C=NN4)F
Method in brief: as §1

[13] = compound: CC1=C(C2=C(C=C1)C(=O)C3=CC=CC=C3N2CCCN)C
Method in brief: as §1

[14] = compound: CC1=C(C=C(C=C1)NC(=O)C2=CC(=CC=C2)C(C)(C)C#N)NC3=CC4=C(C=C3)N=CN(C4=O)C
Method in brief: as §1

[15] = compound: CC1=C(C=C(C=C1)NC(=O)C2=CC(=CC=C2)N(C)C)NC(=O)C3=CC=C(C=C3)O
Method in brief: as §1

[16] = compound: CC1=CC=C(C=C1)SC2=C3C=C(SC3=CN=C2)C(=O)N
Method in brief: as §1

Measured: log2 fold change

EXOC2 (UniProt Q96KP1)
inactive: erlotinib 0.011 | [1] -0.008 | [2] -0.028 | [3] 0.049 | [4] -0.008 | [5] -0.001 | [6] -0.042 | [7] -0.018 | [8] 0.016 | IRAK-1-4 Inhibitor I 0.009 | ibrutinib 0.014 | [9] 0.003 | ralimetinib 0.049 | [10] -0.027 | [11] -0.022 | [12] 0.01 | [13] -0.019 | [14] 0.016 | [15] 0.032 | [16] 0.004

FAM210B (UniProt Q96KR6)
inactive: erlotinib -0.034 | [1] -0.14 | [2] 0.05 | [3] -0.048 | [4] 0.049 | [5] -0.049 | [6] 0.102 | [7] -0.01 | [8] 0.082 | IRAK-1-4 Inhibitor I 0.06 | ibrutinib -0.049 | [9] -0.017 | ralimetinib 0.064 | [10] -0.08 | [11] -0.008 | [12] -0.011 | [13] -0.006 | [14] 0.024 | [15] 0.036 | [16] 0.013

EXOC8 (UniProt Q8IYI6)
inactive: erlotinib 0.048 | [1] -0.007 | [2] 0.005 | [3] 0.014 | [4] 0.022 | [5] -0.024 | [6] -0.048 | [7] 0.013 | [8] 0.034 | IRAK-1-4 Inhibitor I -0.004 | ibrutinib -0.013 | [9] 0.012 | ralimetinib 0.021 | [10] -0.02 | [11] 0.018 | [12] 0.011 | [13] -0.014 | [14] -0.022 | [15] 0.022 | [16] 0.002

ETHE1 (UniProt O95571)
inactive: erlotinib -0.046 | [1] -0.01 | [2] 0.039 | [3] 0.021 | [4] 0.034 | [5] -0.007 | [6] 0.012 | [7] -0.046 | [8] -0.013 | IRAK-1-4 Inhibitor I -0.044 | ibrutinib -0.029 | [9] -0.01 | ralimetinib 0.03 | [10] -0.021 | [11] -0.092 | [12] 0.087 | [13] 0.022 | [14] 0.011 | [15] 0.046 | [16] -0.042

ERLEC1 (UniProt Q96DZ1)
inactive: erlotinib 0.02 | [1] 0.013 | [2] -0.006 | [3] 0.004 | [4] 0.003 | [5] -0.013 | [6] -0.059 | [7] -0.022 | [8] 0.015 | IRAK-1-4 Inhibitor I 0.022 | ibrutinib 0.003 | [9] 0.007 | ralimetinib 0.032 | [10] -0.031 | [11] -0.015 | [12] 0.03 | [13] -0.012 | [14] 0.019 | [15] -0.024 | [16] -0.014

EXOC7 (UniProt Q9UPT5)
inactive: erlotinib 0.048 | [1] 0.033 | [2] 0.032 | [3] -0.04 | [4] 0.046 | [5] 0.006 | [6] -0.071 | [7] -0.02 | [8] 0.019 | IRAK-1-4 Inhibitor I -0.001 | ibrutinib -0.005 | [9] -0.025 | ralimetinib -0.005 | [10] -0.035 | [11] -0.005 | [12] 0.031 | [13] -0.026 | [14] 0.02 | [15] 0.051 | [16] -0.049

ESYT1 isoform 2 (UniProt Q9BSJ8)
inactive: erlotinib -0.007 | [1] 0.033 | [2] 0.022 | [3] 0.008 | [4] -0.029 | [5] -0.017 | [6] 0.007 | [7] 0.002 | [8] -0.009 | IRAK-1-4 Inhibitor I -0.014 | ibrutinib -0.019 | [9] 0.003 | ralimetinib 0.006 | [10] -0.008 | [11] 0.011 | [12] -0.023 | [13] 0.001 | [14] -0.057 | [15] 0.016 | [16] 0.005

EXTL2 (UniProt Q9UBQ6)
inactive: erlotinib -0.02 | [1] -0.037 | [2] 0.072 | [3] 0.103 | [4] -0.443 | [5] 0 | [6] 0.092 | [7] 0.003 | [8] -0.007 | IRAK-1-4 Inhibitor I -0.049 | ibrutinib 0.217 | [9] -0.056 | ralimetinib -0.015 | [10] 0 | [11] -0.077 | [12] 0.021 | [13] -0.146 | [14] 0.014 | [15] -0.04 | [16] -0.071

FAM192A (UniProt Q9GZU8)
inactive: erlotinib -0.054 | [1] 0 | [2] -0.054 | [3] 0.001 | [4] 0.004 | [5] -0.001 | [6] 0.056 | [7] 0.004 | [8] -0.012 | IRAK-1-4 Inhibitor I -0.027 | ibrutinib -0.004 | [9] 0.008 | ralimetinib 0.021 | [10] 0.055 | [11] -0.014 | [12] 0.02 | [13] -0.005 | [14] -0.019 | [15] 0 | [16] 0.016

FAM117A (UniProt Q9C073)
inactive: erlotinib -0.012 | [1] -0.025 | [2] 0.042 | [3] 0.109 | [4] 0.023 | [5] -0.007 | [6] 0.036 | [7] -0.015 | [8] -0.007 | IRAK-1-4 Inhibitor I 0.029 | ibrutinib 0.031 | [9] 0.051 | ralimetinib -0.008 | [10] 0.019 | [11] -0.024 | [12] 0.04 | [13] -0.025 | [14] 0.019 | [15] -0.028 | [16] 0.011

EXOSC3 (UniProt Q9NQT5)
inactive: erlotinib 0.023 | [1] -0.008 | [2] -0.003 | [3] 0.029 | [4] -0.002 | [5] 0.017 | [6] -0.016 | [7] -0.005 | [8] 0.005 | IRAK-1-4 Inhibitor I 0.032 | ibrutinib -0.004 | [9] -0.01 | ralimetinib 0.007 | [10] -0.063 | [11] 0.016 | [12] 0.016 | [13] -0.042 | [14] 0.047 | [15] -0.027 | [16] 0.008

ESRRA (UniProt P11474)
inactive: erlotinib 0.065 | [1] 0.171 | [2] -0.037 | [3] 0.06 | [4] -0.131 | [5] -0.033 | [6] -0.112 | [7] -0.018 | [8] 0.2 | IRAK-1-4 Inhibitor I 0.029 | [9] 0.045 | ralimetinib 0.043 | [10] -0.023 | [11] 0 | [12] -0.007 | [13] -0.075 | [14] 0.067 | [15] -0.009 | [16] 0.089
active: ibrutinib -0.408

ESD (UniProt P10768)
inactive: erlotinib -0.005 | [1] 0.012 | [2] -0.013 | [3] -0.003 | [4] -0.002 | [5] 0.022 | [6] 0.019 | [7] 0.002 | [8] 0.03 | IRAK-1-4 Inhibitor I -0.016 | ibrutinib -0.011 | [9] -0.01 | ralimetinib -0.023 | [10] 0.019 | [11] 0.004 | [12] -0.002 | [13] 0.018 | [14] 0.021 | [15] -0.027 | [16] 0.025

F5 (UniProt P12259)
inactive: erlotinib -0.041 | [1] -0.015 | [2] -0.054 | [3] -0.06 | [4] 0.009 | [5] -0.015 | [6] 0.059 | [7] 0.026 | [8] -0.023 | IRAK-1-4 Inhibitor I -0.048 | ibrutinib 0.027 | [9] -0.021 | ralimetinib 0.014 | [10] 0.15 | [11] -0.011 | [12] 0.026 | [13] 0.035 | [14] 0.006 | [15] -0.018 | [16] -0.043

ETNK1 (UniProt Q9HBU6)
inactive: erlotinib -0.005 | [1] -0.053 | [2] 0.08 | [3] -0.03 | [4] 0.02 | [5] -0.007 | [6] -0.013 | [7] -0.03 | [8] 0.036 | IRAK-1-4 Inhibitor I -0.04 | ibrutinib -0.014 | [9] -0.027 | ralimetinib -0.026 | [10] -0.01 | [11] -0.02 | [12] -0.045 | [13] 0.009 | [14] 0.013 | [15] 0.025 | [16] -0.02

FAM160B1 (UniProt Q5W0V3)
inactive: erlotinib 0.006 | [1] -0.052 | [2] 0.022 | [3] 0.04 | [4] -0.003 | [5] -0.024 | [6] 0.072 | [7] -0.022 | [8] 0.032 | IRAK-1-4 Inhibitor I 0.015 | ibrutinib 0.04 | [9] 0.006 | ralimetinib 0.004 | [10] -0.02 | [11] -0.021 | [12] 0.028 | [13] -0.03 | [14] 0.034 | [15] 0.02 | [16] -0.015

Pulled one by one from above (two):
ETHE1 (UniProt O95571)
inactive: erlotinib -0.046 | [1] -0.01 | [2] 0.039 | [3] 0.021 | [4] 0.034 | [5] -0.007 | [6] 0.012 | [7] -0.046 | [8] -0.013 | IRAK-1-4 Inhibitor I -0.044 | ibrutinib -0.029 | [9] -0.01 | ralimetinib 0.03 | [10] -0.021 | [11] -0.092 | [12] 0.087 | [13] 0.022 | [14] 0.011 | [15] 0.046 | [16] -0.042

EXTL2 (UniProt Q9UBQ6)
inactive: erlotinib -0.02 | [1] -0.037 | [2] 0.072 | [3] 0.103 | [4] -0.443 | [5] 0 | [6] 0.092 | [7] 0.003 | [8] -0.007 | IRAK-1-4 Inhibitor I -0.049 | ibrutinib 0.217 | [9] -0.056 | ralimetinib -0.015 | [10] 0 | [11] -0.077 | [12] 0.021 | [13] -0.146 | [14] 0.014 | [15] -0.04 | [16] -0.071

— the supplement of paper PMC10849652
